Results are given in words; binding and its absence hold for the method and conditions named. Some entries that bind do so weakly or less than the wild type.
What was measured:
[1] = biological target: p97 (two-hybrid fusion in pGBDU-C1) (human) (UniProt P55072); test: two-hybrid
[2] = biological target: GST-FAM104A isoform 1 (human) (UniProt Q969W3); test: pull-down
[3] = biological target: GST-FAM104A isoform 2 (human) (UniProt Q969W3); test: pull-down
[4] = biological target: GST-FAM104B isoform 3 (human) (UniProt Q5XKR9); test: pull-down

Amino acid sequences for entries named in this document (tags omitted). A change or cut given only in a name is not applied to a line headed by its entry. Chains listed by the source or under a name are the forms on record and can include a tag or linker.
UniProt Q969W3: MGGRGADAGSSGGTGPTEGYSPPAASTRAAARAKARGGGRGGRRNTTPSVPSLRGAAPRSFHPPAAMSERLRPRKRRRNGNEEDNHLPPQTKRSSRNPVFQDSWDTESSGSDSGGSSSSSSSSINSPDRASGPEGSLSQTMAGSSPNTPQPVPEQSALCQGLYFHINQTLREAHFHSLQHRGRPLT
GST-FAM104A isoform 1 (Q969W3, form named): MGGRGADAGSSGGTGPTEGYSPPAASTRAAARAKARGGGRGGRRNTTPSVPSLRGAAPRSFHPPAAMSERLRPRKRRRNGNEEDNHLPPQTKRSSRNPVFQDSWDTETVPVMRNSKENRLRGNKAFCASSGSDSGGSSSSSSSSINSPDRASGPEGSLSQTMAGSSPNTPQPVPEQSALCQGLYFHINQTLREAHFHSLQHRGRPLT
GST-FAM104B isoform 3 (Q5XKR9-3, form named): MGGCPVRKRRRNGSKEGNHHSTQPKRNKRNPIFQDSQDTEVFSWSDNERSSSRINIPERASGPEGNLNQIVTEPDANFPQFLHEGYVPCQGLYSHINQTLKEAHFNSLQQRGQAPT
UniProt Q9UNN5: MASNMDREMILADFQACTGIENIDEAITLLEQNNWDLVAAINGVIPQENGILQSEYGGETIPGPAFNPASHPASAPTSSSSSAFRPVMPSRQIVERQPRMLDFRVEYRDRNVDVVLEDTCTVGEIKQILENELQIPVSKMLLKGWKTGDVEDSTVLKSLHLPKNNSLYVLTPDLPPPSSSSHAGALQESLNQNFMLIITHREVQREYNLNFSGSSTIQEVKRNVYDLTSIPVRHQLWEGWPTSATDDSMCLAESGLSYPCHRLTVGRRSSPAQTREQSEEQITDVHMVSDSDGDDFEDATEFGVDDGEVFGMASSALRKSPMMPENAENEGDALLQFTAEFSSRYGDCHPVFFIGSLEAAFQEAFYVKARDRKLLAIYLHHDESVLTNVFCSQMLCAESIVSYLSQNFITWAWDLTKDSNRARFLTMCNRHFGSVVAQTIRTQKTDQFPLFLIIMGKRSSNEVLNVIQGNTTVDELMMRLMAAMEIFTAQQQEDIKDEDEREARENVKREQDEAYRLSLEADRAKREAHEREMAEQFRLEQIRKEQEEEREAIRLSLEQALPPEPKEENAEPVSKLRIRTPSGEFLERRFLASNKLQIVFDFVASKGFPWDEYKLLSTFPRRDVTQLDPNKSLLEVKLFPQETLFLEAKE

| Substance | binding [1] | binding [2] | binding [3] | binding [4] |
| --- | --- | --- | --- | --- |
| FAM104B isoform 3, full-length (two-hybrid fusion in pGAD-C1) (from UniProt Q5XKR9-3 1-116) | binds | – | – | – |
| His6-FAF1 (from UniProt Q9UNN5 1-650) | – | binds | binds | no binding (tested: 0.5 nmole His6-FAF1) |
| p97, wild-type, full-length (recombinant) (from UniProt P55072 1-806) | – | – | – | binds |
